PubChem BioAssay AID686937 | Drosophila RNAi Screening Center | 2013

- Assay: 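Genes whose loss weakens secretory pathway function in fly cells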 (primary screen)
- System: Drosophila S2 cells expressing secreted horseradish peroxidase
- Knock-down reagent: long dsRNA against Drosophila genes
- Time to read-out: about 5.5 days (5 days dsRNA, then 12 h reporter induction)
- Challenge: reporter expression induced after 5 days of dsRNA, read 12 h later; inducer not stated
- Detection: 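After 5 days of dsRNA and 12 h of reporter induction, medium peroxidase read by chemiluminescence and scored as per-plate z-score; higher values mean more reporter released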
- Reading the numbers: z-score: higher = more reporter secreted into medium
In all, the deposit lists about 23,000 reagents; below is a random part of those that have a named target and a result. 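Reduced-secretion tags in replicate 1 do not always agree with the z-scores; no criterion for assigning the tags was given.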 Reagents against one gene are numbered here. A plus sign joins genes that one reagent is predicted to hit. Reagent sequences are not shown. Not given: the amount of reagent.

The opening 8 records, ahead of the listing:
| predicted target | reagent no. | z-score, replicate 1 | z-score, replicate 2 | z-score, replicate 3 | z-score, replicate 4 | phenotype, replicate 1 |
| --- | --- | --- | --- | --- | --- | --- |
| CG16704 | 1 | -0.19 | 0.39 | – | – | – |
| CG31407 | 1 | 0.42 | 0.35 | – | – | – |
| Eig71Ed (Ecdysone-induced gene 71Ed) | 1 | 0.39 | 0.45 | – | – | – |
| Col4a1 (Collagen type IV alpha 1) | 1 | 0.41 | 0.31 | – | – | – |
| in (inturned) | 1 | 0.23 | 0.51 | – | – | – |
| dac (dachshund) | 1 | 0.49 | 0.31 | – | – | – |
| bbc (bb in a boxcar) | 1 | -0.57 | 0.43 | 0.55 | -0.28 | – |
| bbc (bb in a boxcar) | 2 | 0.82 | -0.51 | – | – | – |

Results, from the start:
| predicted target | reagent no. | z-score, replicate 1 | z-score, replicate 2 | z-score, replicate 3 | z-score, replicate 4 | phenotype, replicate 1 |
| --- | --- | --- | --- | --- | --- | --- |
| CG16704 | 1 | -0.19 | 0.39 | – | – | – |
| CG31407 | 1 | 0.42 | 0.35 | – | – | – |
| Eig71Ed (Ecdysone-induced gene 71Ed) | 1 | 0.39 | 0.45 | – | – | – |
| Col4a1 (Collagen type IV alpha 1) | 1 | 0.41 | 0.31 | – | – | – |
| in (inturned) | 1 | 0.23 | 0.51 | – | – | – |
| dac (dachshund) | 1 | 0.49 | 0.31 | – | – | – |
| bbc (bb in a boxcar) | 1 | -0.57 | 0.43 | 0.55 | -0.28 | – |
| bbc (bb in a boxcar) | 2 | 0.82 | -0.51 | – | – | – |
| CG9649 | 1 | 0.4 | 0.54 | – | – | – |
| nis | 1 | -0.46 | -0.37 | – | – | – |
| CG1304 | 1 | 0.59 | 0.09 | – | – | – |
| CG7394 | 1 | 0.06 | 0.2 | – | – | – |
| CG16713 | 1 | -0.04 | 0.37 | – | – | – |
| RpS26 (Ribosomal protein S26) | 1 | -4.01 | -3.59 | – | – | reduced secretion |
| lncRNA:CR43491 (long non-coding RNA:CR43491) | 1 | 0.12 | 1.79 | – | – | – |
| ast (asteroid) | 1 | 0.5 | 0.38 | – | – | – |
| Naxe (NAD(P)HX epimerase) | 1 | 0.17 | 0.29 | – | – | – |
| CG30039 | 1 | 0.01 | -0.66 | – | – | – |
| CG5280 | 1 | 0.47 | 0.39 | – | – | – |
| CG5280 | 2 | 1.35 | 0.8 | – | – | – |
| CG9967 | 1 | -6.75 | 0.41 | -0.34 | -7.88 | – |
| CG3638 | 1 | 0.63 | 0.56 | – | – | – |
| NFAT (NFAT nuclear factor) | 1 | -1.04 | 0.06 | – | – | – |
| NFAT (NFAT nuclear factor) | 2 | 0.15 | -0.12 | – | – | – |
| CG7639 | 1 | 0.08 | 0.32 | – | – | – |
| Galk (Galactokinase) | 1 | 0.14 | 0.31 | – | – | – |
| CG13282 | 1 | 0.4 | 0.04 | – | – | – |
| GckIII (Germinal centre kinase III) | 1 | 0.21 | -0.56 | – | – | – |
| Chsy (Chondroitin sulfate synthase) | 1 | 0.38 | 0.47 | – | – | – |
| Chsy (Chondroitin sulfate synthase) | 2 | 0.58 | 0.48 | -0.4 | 0.24 | – |
| Brr2 (Brr2 U5 snRNP complex subunit) | 1 | -4.09 | -3.09 | – | – | reduced secretion |
| sdk (sidekick) | 1 | 0.4 | 0.03 | – | – | – |
| CG15109 | 1 | -0.25 | 0.28 | – | – | – |
| Rsf1 (Repressor splicing factor 1) | 1 | -0.43 | -0.78 | – | – | – |
| Rsf1 (Repressor splicing factor 1) | 2 | 0.11 | 0 | – | – | – |
| CG4374 | 1 | 0.34 | 0.36 | – | – | – |
| Aptx (aprataxin) | 1 | 0.4 | 0.42 | – | – | – |
| CG10725 | 1 | 0.39 | 0.2 | – | – | – |
| CG14000 + bchs | 1 | 0.21 | 0.07 | – | – | – |
| mld (molting defective) | 1 | 0.54 | 0.59 | – | – | – |
| mld (molting defective) | 2 | 0.06 | 0.42 | – | – | – |
| Ntl (Neurotransmitter transporter-like) | 1 | 0.76 | 0.44 | – | – | – |
| CG43331 | 1 | -0.14 | 0.31 | – | – | – |
| CG10584 | 1 | 0.29 | 0.42 | – | – | – |
| CG12605 | 1 | 0.21 | 0.31 | – | – | – |
| CG13029 | 1 | 0.27 | 0.15 | – | – | – |
| PolH (DNA polymerase eta) | 1 | 0.26 | 0.16 | – | – | – |
| hog | 1 | -0.17 | 0.06 | – | – | – |
| CG6220 | 1 | 0.49 | 0.43 | – | – | – |
| Cyt-c-p (Cytochrome c proximal) | 1 | 0.31 | -0.41 | – | – | – |
| CG34458 | 1 | 0.23 | 0.26 | – | – | – |
| l(3)neo43 (lethal (3) neo43) | 1 | 0.04 | -0.22 | – | – | – |
| Prp31 (Pre-mRNA processing factor 31) | 1 | -1.39 | -1.11 | – | – | – |
| RpS4 (Ribosomal protein S4) | 1 | -4.18 | -3.13 | – | – | reduced secretion |
| Sos (Son of sevenless) | 1 | -1.72 | -0.63 | – | – | reduced secretion |
| CG34040 | 1 | -0.32 | 0.13 | – | – | – |
| CG11279 | 1 | 0.23 | 0.11 | – | – | – |
| BigH1 (Histone H1 variant BigH1) | 1 | 0.21 | 0.09 | – | – | – |
| CG2310 | 1 | 0.16 | 0.51 | – | – | – |
| Fatp3 (Fatty acid transport protein 3) | 1 | 0.34 | 0.1 | – | – | – |
| wun2 (wunen-2) | 1 | 0.43 | 0.42 | – | – | – |
| Gr22c (Gustatory receptor 22c) | 1 | 0.19 | -0.29 | – | – | – |
| dnd (dead end) | 1 | 0.29 | 0.47 | – | – | – |
| Best3 (Bestrophin 3) | 1 | 0.58 | 0.32 | – | – | – |
| Ugt36A1 + CG15418 | 1 | 0.14 | 0.5 | – | – | – |
| CG10910 | 1 | 0.37 | 0.26 | 0.02 | 0.31 | – |
| msd1 (mitotic spindle density 1) | 1 | -0.34 | 0.09 | – | – | – |
| ND-49L (NADH dehydrogenase (ubiquinone) 49 kDa subunit-like) | 1 | 0.06 | -0.06 | – | – | – |
| CG33655 | 1 | -0.26 | 0.21 | – | – | – |
| CG17646 | 1 | 0.43 | 0.29 | – | – | – |
| GNBP1 (Gram-negative bacteria binding protein 1) | 1 | 0.25 | 0.36 | – | – | – |
| GNBP1 (Gram-negative bacteria binding protein 1) | 2 | 1.28 | 0.79 | – | – | – |
| Acp62F (Accessory gland protein 62F) | 1 | 0.2 | 0.27 | – | – | – |
| CG4377 | 1 | 0.24 | 0.3 | – | – | – |
| SdhD (Succinate dehydrogenase, subunit D) | 1 | 0.59 | 0.32 | – | – | – |
| CG31815 | 1 | 0.03 | 0.22 | – | – | – |
| cola + swif | 1 | 0.29 | 0.2 | – | – | – |
| cola + swif | 2 | -0.3 | -0.06 | – | – | – |
| Idgf1 (Imaginal disc growth factor 1) | 1 | 0.29 | 0.31 | – | – | – |
| Deaf1 (Deformed epidermal autoregulatory factor-1) | 1 | 0.48 | 0.53 | 0.31 | 0.53 | – |
| Deaf1 (Deformed epidermal autoregulatory factor-1) | 2 | 1.08 | 1.31 | – | – | – |
| beat-IIIb (beaten path IIIb) | 1 | 0.37 | 0.21 | – | – | – |
